One substance from paper PMC10692324 can be followed below.

By UniProt entry, the sequences of proteins in these tests, tags left out.
UniProt P10275: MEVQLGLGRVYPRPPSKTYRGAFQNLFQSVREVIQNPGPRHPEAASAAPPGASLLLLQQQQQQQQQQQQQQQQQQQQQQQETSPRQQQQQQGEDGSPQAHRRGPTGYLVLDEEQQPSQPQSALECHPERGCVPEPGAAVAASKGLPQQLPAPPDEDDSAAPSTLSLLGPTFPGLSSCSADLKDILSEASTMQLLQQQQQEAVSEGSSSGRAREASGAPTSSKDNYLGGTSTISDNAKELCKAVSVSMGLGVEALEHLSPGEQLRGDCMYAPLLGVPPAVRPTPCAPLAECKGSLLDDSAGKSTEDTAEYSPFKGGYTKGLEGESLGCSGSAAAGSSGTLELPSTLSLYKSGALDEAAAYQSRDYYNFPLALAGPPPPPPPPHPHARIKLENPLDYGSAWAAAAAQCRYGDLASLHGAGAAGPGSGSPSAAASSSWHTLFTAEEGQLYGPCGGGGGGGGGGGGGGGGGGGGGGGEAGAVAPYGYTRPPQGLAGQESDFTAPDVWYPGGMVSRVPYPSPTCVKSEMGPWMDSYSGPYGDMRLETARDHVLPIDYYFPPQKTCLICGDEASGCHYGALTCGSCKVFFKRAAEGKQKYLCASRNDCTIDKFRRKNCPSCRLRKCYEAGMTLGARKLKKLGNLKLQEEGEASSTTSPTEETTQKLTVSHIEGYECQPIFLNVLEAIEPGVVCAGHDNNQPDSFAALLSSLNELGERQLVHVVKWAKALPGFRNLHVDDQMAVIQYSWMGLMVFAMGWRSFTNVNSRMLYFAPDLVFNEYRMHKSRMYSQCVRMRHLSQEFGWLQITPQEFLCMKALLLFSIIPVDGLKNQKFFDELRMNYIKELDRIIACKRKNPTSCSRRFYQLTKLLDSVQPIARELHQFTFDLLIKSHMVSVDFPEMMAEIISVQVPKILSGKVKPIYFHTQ
UniProt P21333: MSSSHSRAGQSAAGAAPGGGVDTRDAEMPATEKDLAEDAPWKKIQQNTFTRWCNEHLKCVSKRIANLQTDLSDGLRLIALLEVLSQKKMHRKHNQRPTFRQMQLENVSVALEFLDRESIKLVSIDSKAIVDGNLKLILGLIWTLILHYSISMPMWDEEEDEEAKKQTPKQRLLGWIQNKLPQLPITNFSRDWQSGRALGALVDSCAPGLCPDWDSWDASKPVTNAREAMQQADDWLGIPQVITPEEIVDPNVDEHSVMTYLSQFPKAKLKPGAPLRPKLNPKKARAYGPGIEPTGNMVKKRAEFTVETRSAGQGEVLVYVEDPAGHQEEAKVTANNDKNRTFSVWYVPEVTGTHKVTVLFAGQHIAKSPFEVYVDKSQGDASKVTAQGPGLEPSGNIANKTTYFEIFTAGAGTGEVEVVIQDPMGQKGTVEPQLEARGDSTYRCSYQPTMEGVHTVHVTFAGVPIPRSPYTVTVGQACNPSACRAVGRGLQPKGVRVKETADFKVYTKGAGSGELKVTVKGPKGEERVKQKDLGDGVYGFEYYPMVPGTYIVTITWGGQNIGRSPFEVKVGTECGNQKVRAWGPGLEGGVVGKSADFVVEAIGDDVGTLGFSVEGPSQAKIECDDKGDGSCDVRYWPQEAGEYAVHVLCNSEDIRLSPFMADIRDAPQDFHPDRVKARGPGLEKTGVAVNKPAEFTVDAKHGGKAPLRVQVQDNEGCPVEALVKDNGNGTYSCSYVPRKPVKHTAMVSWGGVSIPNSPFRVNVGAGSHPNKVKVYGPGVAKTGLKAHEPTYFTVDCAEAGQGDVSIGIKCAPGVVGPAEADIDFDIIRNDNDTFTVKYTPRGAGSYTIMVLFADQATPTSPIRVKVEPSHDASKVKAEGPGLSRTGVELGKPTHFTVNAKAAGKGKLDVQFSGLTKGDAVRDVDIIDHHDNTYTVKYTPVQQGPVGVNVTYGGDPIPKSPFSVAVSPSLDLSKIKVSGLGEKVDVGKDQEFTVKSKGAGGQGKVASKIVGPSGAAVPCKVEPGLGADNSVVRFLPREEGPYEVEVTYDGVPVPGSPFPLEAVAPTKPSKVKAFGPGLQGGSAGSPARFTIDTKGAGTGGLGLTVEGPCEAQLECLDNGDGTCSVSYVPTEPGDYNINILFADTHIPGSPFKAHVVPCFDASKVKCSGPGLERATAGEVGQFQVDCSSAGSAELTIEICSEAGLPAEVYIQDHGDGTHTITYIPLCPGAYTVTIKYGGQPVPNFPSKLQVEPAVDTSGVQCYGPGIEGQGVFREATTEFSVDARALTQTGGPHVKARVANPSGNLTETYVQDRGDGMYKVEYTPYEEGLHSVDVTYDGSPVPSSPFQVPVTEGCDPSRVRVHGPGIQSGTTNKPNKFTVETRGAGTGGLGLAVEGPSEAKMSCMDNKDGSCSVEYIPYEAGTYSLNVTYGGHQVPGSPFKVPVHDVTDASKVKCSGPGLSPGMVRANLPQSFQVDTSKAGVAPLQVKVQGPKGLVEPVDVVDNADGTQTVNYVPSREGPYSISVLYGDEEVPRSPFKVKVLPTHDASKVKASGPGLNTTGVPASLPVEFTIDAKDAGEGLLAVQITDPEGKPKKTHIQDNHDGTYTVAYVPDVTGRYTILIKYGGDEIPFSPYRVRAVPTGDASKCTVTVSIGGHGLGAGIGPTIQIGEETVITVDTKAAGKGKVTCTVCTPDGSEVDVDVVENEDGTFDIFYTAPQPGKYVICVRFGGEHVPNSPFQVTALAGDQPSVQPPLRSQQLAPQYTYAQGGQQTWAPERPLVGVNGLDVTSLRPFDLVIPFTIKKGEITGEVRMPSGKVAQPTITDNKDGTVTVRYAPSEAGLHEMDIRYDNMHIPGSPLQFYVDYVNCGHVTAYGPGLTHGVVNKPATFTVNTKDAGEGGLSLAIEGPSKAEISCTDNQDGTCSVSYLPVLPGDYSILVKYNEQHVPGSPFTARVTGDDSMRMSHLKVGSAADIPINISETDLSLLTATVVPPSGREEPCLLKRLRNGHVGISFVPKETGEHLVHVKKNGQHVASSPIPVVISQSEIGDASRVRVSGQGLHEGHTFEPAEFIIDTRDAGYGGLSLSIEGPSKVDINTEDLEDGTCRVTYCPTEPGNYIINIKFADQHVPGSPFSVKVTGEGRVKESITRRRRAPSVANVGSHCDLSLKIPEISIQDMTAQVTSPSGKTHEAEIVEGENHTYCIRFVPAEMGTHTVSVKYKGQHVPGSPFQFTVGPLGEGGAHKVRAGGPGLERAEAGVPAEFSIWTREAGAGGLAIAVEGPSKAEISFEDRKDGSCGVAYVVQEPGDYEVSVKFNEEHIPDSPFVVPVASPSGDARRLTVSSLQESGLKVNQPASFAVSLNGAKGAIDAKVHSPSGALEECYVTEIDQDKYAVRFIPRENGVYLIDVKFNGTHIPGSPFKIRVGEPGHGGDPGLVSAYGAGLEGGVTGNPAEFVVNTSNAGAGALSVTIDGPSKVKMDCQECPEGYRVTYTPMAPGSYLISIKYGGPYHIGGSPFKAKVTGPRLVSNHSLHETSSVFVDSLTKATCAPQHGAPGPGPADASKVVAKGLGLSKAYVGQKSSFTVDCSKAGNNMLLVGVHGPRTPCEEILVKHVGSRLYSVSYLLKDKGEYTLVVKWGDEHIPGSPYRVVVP

No constants are given. Whether binding was seen depends on the method and setting. In cells and extracts the contact can be indirect. Some binding calls cover weakened binding; strength is not graded here.

The target of the test is androgen receptor (human (endogenous in skeletal muscle biopsies)) (UniProt P10275). Kind of test: co-IP; lysates of human skeletal muscle biopsies (RIPA buffer) from young (<58 years, 1 mg lysate protein) or old (>70 years, 3 mg) subjects, immune-precipitated with anti-AR antibody (E354N) or control IgG; FlnA detected by western blot. In general terms: In western blotting, separated proteins are transferred to a membrane and probed.

On to filamin A (from UniProt P21333 1-2647), for which the binding entry is reported as “binds”.
